Results on two substances are retold here after publication PMC6033466.

Results are given in words; binding and its absence hold for the method and conditions named. In cells and extracts the contact can be indirect. Binding calls can cover weak binding; strength is not graded here. Tags and fused reporters may be left off the sequences shown.

In this experiment the target is T1, Myc-VN-USP8 (human) (UniProt P40818).
T1 sequence: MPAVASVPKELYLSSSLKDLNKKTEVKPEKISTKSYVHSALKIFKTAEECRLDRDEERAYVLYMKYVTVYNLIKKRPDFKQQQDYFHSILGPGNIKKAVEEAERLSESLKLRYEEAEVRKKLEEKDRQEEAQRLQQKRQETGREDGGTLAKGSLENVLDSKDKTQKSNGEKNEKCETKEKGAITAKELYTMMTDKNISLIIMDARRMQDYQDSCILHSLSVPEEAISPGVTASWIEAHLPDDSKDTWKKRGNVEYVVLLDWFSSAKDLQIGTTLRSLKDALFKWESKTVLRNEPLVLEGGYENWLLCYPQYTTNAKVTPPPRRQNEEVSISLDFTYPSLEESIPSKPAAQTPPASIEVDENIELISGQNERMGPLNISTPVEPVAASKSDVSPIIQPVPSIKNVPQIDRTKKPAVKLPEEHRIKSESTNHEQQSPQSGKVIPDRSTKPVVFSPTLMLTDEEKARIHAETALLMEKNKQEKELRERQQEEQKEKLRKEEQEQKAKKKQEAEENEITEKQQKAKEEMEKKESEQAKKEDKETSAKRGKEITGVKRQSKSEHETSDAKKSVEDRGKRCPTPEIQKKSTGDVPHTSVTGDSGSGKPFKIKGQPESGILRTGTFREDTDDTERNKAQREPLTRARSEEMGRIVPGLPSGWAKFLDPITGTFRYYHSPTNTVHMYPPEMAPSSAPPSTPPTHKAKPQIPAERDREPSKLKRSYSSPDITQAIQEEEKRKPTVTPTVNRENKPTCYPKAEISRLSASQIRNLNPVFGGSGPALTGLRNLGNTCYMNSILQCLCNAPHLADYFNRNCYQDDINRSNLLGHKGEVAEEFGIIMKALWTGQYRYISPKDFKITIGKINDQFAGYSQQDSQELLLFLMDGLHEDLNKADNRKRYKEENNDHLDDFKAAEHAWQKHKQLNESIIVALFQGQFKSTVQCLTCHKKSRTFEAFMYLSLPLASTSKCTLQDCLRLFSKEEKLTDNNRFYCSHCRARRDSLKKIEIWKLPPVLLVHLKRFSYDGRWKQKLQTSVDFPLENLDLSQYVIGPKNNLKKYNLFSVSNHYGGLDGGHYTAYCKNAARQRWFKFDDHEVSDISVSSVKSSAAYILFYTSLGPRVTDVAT
Description: split reporter; Venus complementation; fixed HeLa cells co-transfected with Myc-VN-USP8 and HA-VC-CHMP1B constructs; Venus spots counted per Myc and HA positive cell.

For the substance “HA-VC-CHMP1B Δα5,6 (human) (domain or fragment)”, the binding entry is “binds”.
The entry for “HA-VC-CHMP1B Δα6 (human) (domain or fragment)” is “binds”.
